# Results reported in PubChem BioAssay AID493014 (National Center for Advancing Translational Sciences (NCATS), 2011).
# “And” between values parts separate entries of the source, which are not always exact repeats. Equal values may be shown once. Hit rate of the full screen: of about 340,000 compounds, about 170 (0.05%) were called active. The inconclusive results got no clear call from the source; some entries with a clear call stand among them for comparison. Calls follow the shape of the dose curve; as a rule, active = well fitted inhibition curve with a large enough effect in the signal ratio, with a control signal flat (not every such curve was filed as active); inconclusive = small, poorly fitted or top-dose-only effect, or effect the other way, or a change in a side signal; inactive = flat fitted curve, though single readings scatter; the % refers to the signal ratio. Potencies beside an inconclusive call are fits to weak or partial responses and may not hold up.
# Assay: qHTS Assay to Find Inhibitors of Chronic Active B-Cell Receptor Signaling;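 as to activity change, negative = inhibition: plate controls were basal doxycycline-induced cells for no effect and cells given 10 µM MG132 for full effect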
# Details: ABC-DLBCL IkBa-CBG/CBR reporter, luminescence ratio (green luciferase fused to IkBa over red control in TMD8 lymphoma cells), 4 h; activity change, negative = inhibition: at 46.1 µM (top of the series)
# Procedure, shortened: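 TMD8 ABC-DLBCL cells carrying doxycycline-inducible green luciferase fused to IkappaBalpha plus unfused red luciferase were exposed to compounds (up to 46 uM) for 4 hrs at 37C. Activity came from the overlap-corrected green/red luminescence ratio.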
# Potency is read from the fitted curve at half-maximal effect.
Compound,Potency,"activity change, negative = inhibition"
CCOc1ccc(NC(=O)c2cc(OC)nc3ccccc23)cc1,"inconclusive: 3.55 µM [falling, full curve]",
COc1ccccc1C(=O)NNC(=O)c1cccc(C)c1,"inconclusive: 35.5 µM [rising, single point]",
Cc1cccc(OCc2nnc(SCC(=O)N3c4ccccc4CCc4ccccc43)o2)c1,,inconclusive: 8.18%
COc1cc(C(=S)N2CCCC2)ccc1OCc1ccccc1,,inactive
CCOC(=O)c1cnc2c(-c3ccccc3)c(C)nn2c1N,,inconclusive: 5.25%
CCOc1ccccc1C(=O)OCC(=O)Nc1cc(S(=O)(=O)N2CCOCC2)ccc1C,,inactive
COc1ccc(S(=O)(=O)N(CC(=O)O)c2ccc(C)cc2)cc1,,inactive
COc1ccc(C(=O)c2oc3ccccc3c2N)cc1,"inconclusive: 18.4 µM [falling, single point]",
COc1ccc2nc(C)cc(SCC(=O)O)c2c1,,inconclusive: -10%
Cn1c(=NC(=O)C(C)(C)C)sc2cccc(F)c21,,inconclusive: 2.82%
O=C(Nc1ccccc1C(=O)N1CCOCC1)c1ccncc1,,inconclusive: -8.06%
COC(=O)C12CC3CC(C1)CC(n1cnc(Cl)n1)(C3)C2,,inactive
O=C(CN1C(=O)NC(Cc2c[nH]c3ccccc23)C1=O)Nc1cccc(S(=O)(=O)N2CCOCC2)c1 (stereo not given),"inconclusive: 35.5 µM [falling, single point]",
COc1ccc2c(c1)C(=O)N1[C@H]3c4cc(Br)ccc4OC[C@@H]3[C@H](c3ccccc3)[C@]1(C)C(=O)N2,,inconclusive: 7.18%
COc1cc2cc(C(=O)Nc3ccccc3)c(N)nc2cc1OC,,inactive
CCN1CCN(CCCNC(=O)c2cc3sccc3n2CC)CC1,,inconclusive: 24.2%
COCCN1CCN(Cc2nc(Cc3ccc(OC)c(OC)c3)no2)CC1,,inactive
Cc1cccc(C(=O)Nc2sc3c(c2C#N)CCCCC3)c1,,inconclusive: 24.6%
C=CCNCC(=O)Nc1ccccc1SCC(=O)Nc1ccsc1C(=O)OC,,inconclusive: 3.55%
Cc1cnc(C(=O)NC(Cc2ccccc2)c2ccccc2)cn1 (stereo not given),,inactive
Cc1ccc(C)c(NC(=S)NC(NC(=O)N(C)C)C(Cl)(Cl)Cl)c1 (stereo not given),,inactive
Cc1c(C)c2ccc(OS(C)(=O)=O)cc2oc1=O,,inconclusive: 3.4%
Cc1cc(C)c2c(c1)c(C)cc1nnc(SCC(=O)NCc3ccco3)n12,"inconclusive: 29.1 µM [falling, single point]",
CCCCn1c(=S)[nH]c2ccc(N3CCOCC3)cc2c1=O,,inconclusive: 6.36%
Cc1cc(NC(=O)c2ccc3c(c2)OCCO3)ccc1NC(=O)c1cc2ccccc2o1,,inconclusive: -4.94%
CCCS(=O)(=O)N1CCCC(C(=O)c2cccc(Cl)c2)C1 (stereo not given),,inconclusive: 0.0175%
COc1ccc2c(c1)Cc1sc(NC(C)=O)nc1-2,,inconclusive: 6.52%

Compound,Potency,"activity change, negative = inhibition"
CCOC(=O)c1ccc(N=c2sc(C(=O)OC)cc(=O)n2CCCN2CCOCC2)cc1,"inconclusive: 25.1 µM [falling, single point] and inconclusive: 18.4 µM [falling, single point]",
Cc1ccc(N=C2NC(=O)/C(=C/c3cccn3C)S2)cc1,"inconclusive: 25.1 µM [falling, single point]",
CCc1ccc2[nH]c(=O)c(CN(Cc3ccc4c(c3)OCO4)Cc3nnnn3C3CCCC3)cc2c1,,inconclusive: -11.4%
CCOC(=O)C1CCN(C2=NC(=O)/C(=C/c3ccc(Cl)cc3)S2)CC1,"inconclusive: 15.8 µM [falling, single point]",
Cc1c(C(=O)Nc2ccc3nc(N4CCOCC4)sc3c2)oc2ccccc12,"inconclusive: 29.1 µM [falling, single point]",
COc1ccc(CNCc2ccncc2)cc1OC,,inactive
Cc1nn(-c2ccc(C(=O)O)cc2)c(=O)c2ccccc12,"inconclusive: 25.1 µM [falling, single point]",
COc1ccc2c(c1)CC[C@@H]1[C@@H]2CC[C@]2(C)C(=O)CC[C@@H]12,,inconclusive: -15.5%
C/C(=N\Nc1ccccc1[N+](=O)[O-])c1ccc(N2CCOCC2)cc1,,inconclusive: 7.37%
Cc1ccccc1Cn1c2ccccc2c2cnn(CC(=O)NCc3ccccn3)c(=O)c21,,inactive
COc1ccccc1/C=C/C(=O)Nc1cccnc1Cl,"inconclusive: 5.62 µM [rising, single point]",
Nc1ncnc(N)c1N=Nc1ccccc1,"inconclusive: 12.6 µM [falling, partial curve]",
COc1ccccc1NC(=O)c1nc[nH]c1C(=O)Nc1ccccc1OC,,inconclusive: 12.7%
O=C(NNc1nc2c(F)cccc2s1)c1ccc(F)cc1,"inconclusive: 25.1 µM [falling, single point]",
CCN1CCN(C(=O)c2cc3nc(-c4ccccc4)cc(C(F)(F)F)n3n2)CC1,,inconclusive: 0.397%
CC(C)CNC(=O)CO/N=C/c1ccccc1Cl,,inconclusive: 5.97%
CCC(=O)N1CCC2(CC1)Oc1ccc(F)cc1C(=O)C21CC(c2cccnc2)=NO1 (stereo not given),,inconclusive: -8.7%
O=C(NCCc1ccccc1)C1CCC(CNS(=O)(=O)c2ccc(Cl)cc2)CC1 (stereo not given),"inconclusive: 3.98 µM [rising, partial curve, poor fit]",
Cc1ccc(-n2nc3c(=O)n(CC(=O)NCCCc4ccccc4)nc(C)c3c2C)cc1,,inactive
COC(=O)c1cc(NC(=O)c2ccccc2F)cc(C(=O)OC)c1,,inconclusive: 0.554%
O=C(NCc1ccc(F)cc1)c1ccc(CS(=O)(=O)Cc2ccc(F)cc2)o1,,inactive
CC(=O)Nc1ccc(CN2CCc3c([nH]c4ccccc34)C2C(C)(C)C)cc1 (stereo not given),,inactive
CCN(CC)S(=O)(=O)c1ccc2nc(NC(=O)c3ccco3)sc2c1,"inconclusive: 12.6 µM [rising, partial curve, poor fit]",
C[C@H](CO)N1C[C@H](C)[C@@H](CN(C)C(=O)Nc2ccc(C(F)(F)F)cc2)Oc2c(cccc2N(C)C)C1=O,,inactive
COc1ccc(C(C)=O)cc1CSc1nnc(-c2ccc(Cl)cc2)n1-c1ccccc1,,inconclusive: -7%
Nc1ccc(C(=O)N/N=C\c2ccc(OC(=O)c3ccccc3Cl)cc2)cc1,"inconclusive: 15.8 µM [falling, partial curve, poor fit]",
CCN(CCS(=O)(=O)c1ccc(Cl)cc1)C(=O)Nc1ccccc1,,inconclusive: -13.3%

# Fetched by structure from the entries so far (7):
Compound,Potency,"activity change, negative = inhibition"
CCc1ccc2[nH]c(=O)c(CN(Cc3ccc4c(c3)OCO4)Cc3nnnn3C3CCCC3)cc2c1,,inconclusive: -11.4%
Cc1ccc(-n2nc3c(=O)n(CC(=O)NCCCc4ccccc4)nc(C)c3c2C)cc1,,inactive
COc1ccccc1NC(=O)c1nc[nH]c1C(=O)Nc1ccccc1OC,,inconclusive: 12.7%
COc1ccc2c(c1)CC[C@@H]1[C@@H]2CC[C@]2(C)C(=O)CC[C@@H]12,,inconclusive: -15.5%
COc1ccc(CNCc2ccncc2)cc1OC,,inactive
Cc1c(C(=O)Nc2ccc3nc(N4CCOCC4)sc3c2)oc2ccccc12,"inconclusive: 29.1 µM [falling, single point]",
C/C(=N\Nc1ccccc1[N+](=O)[O-])c1ccc(N2CCOCC2)cc1,,inconclusive: 7.37%

# Later entries:

Compound,Potency,"activity change, negative = inhibition"
O=C(Nc1ccc(Br)cc1)c1cccc(N2C(=O)CCC2=O)c1,,inconclusive: -6.78%
CCOc1ccc2nc(Cl)c(C3CC(c4ccccc4)=NN3C(=O)c3cccs3)cc2c1 (stereo not given),,inconclusive: -2.95%
COC(=O)c1ccccc1NC(=O)c1cnn2cccnc12,,inconclusive: -21.6%
CCc1cc(C(=O)Cc2ccc(F)cc2)c(O)cc1O,,inactive
CC(=O)c1ccc(S(=O)(=O)N2CCc3ccccc3C2)cc1,,inconclusive: -0.0087%
O=C(NCCNC(=O)c1ccc([N+](=O)[O-])cc1)c1ccncc1,"inconclusive: 10 µM [falling, partial curve]",
CN1C(=O)/C(=C2\SC(=S)N(CCCCCC(=O)O)C2=O)c2ccccc21,"inconclusive: 7.94 µM [falling, partial curve, poor fit]",
CC1=NN(C(N)=S)C(=O)C1N=Nc1ccc(Br)cc1 (stereo not given),,inconclusive: -19.1%
CC(C)(C)CN1CCN(Cc2cccnc2)CC1CCO (stereo not given),,inconclusive: 3.12%
O=C(CC1NCCNC1=O)Nc1ccc([N+](=O)[O-])cc1 (stereo not given),,inconclusive: 0.36%
CCCCOc1ccc(C(=O)N2CCN(CC(=O)Nc3ccc(C)cc3)CC2)cc1OC,,inconclusive: -18.4%
CN(CC(=O)Nc1ccccc1Cl)C(=O)COC(=O)/C=C/c1ccc(C(F)(F)F)cc1,,inconclusive: -0.0169%
Cc1nnc(N=c2ssnc2Cl)o1,,inactive
COC(=O)C1=NN(C(=O)c2cccc(Cl)c2)C(O)(C(C)(C)C)C1 (stereo not given),"inconclusive: 20.6 µM [falling, partial curve]",
COc1cccc(-c2csc(N3CCN(C(=S)Nc4ccccc4OC)CC3)n2)c1,,inactive
COCCNC(=O)c1cc2oc3ccccc3c2n1C,"inconclusive: 0.517 µM [rising, partial curve, poor fit]",
O=C(CN1CCC(Cc2ccccc2)CC1)NCCc1ccc(F)cc1,"inconclusive: 0.891 µM [falling, partial curve, poor fit]",
COC(=O)c1ccc(COc2ccc(C3C4=C(CCCC4=O)Nc4onc(C)c43)cc2)cc1 (stereo not given),,inconclusive: -15.8%
Cc1ccc(C)c(NC(=S)N2CCN(c3cccc(C(F)(F)F)c3)CC2)c1,,inactive
CSc1ccc(CN2CCC(Oc3ccc(C(=O)N4CCCC4)cc3)CC2)cc1,,inactive
Cc1cccc(NC(=O)CSc2nsc(SCC(=O)Nc3cccc(C)c3)c2C#N)c1,"inconclusive: 0.58 µM [falling, full curve]",
O=C(c1ccc(-c2ccccc2)cc1)C1CCCN(C(=O)c2ccncc2)C1 (stereo not given),,inactive
Cc1cnc(C(=O)Nc2ccccc2F)cn1,"inconclusive: 20.6 µM [falling, partial curve]",
CCC(NC(=O)c1cc(COc2c(F)cccc2F)on1)c1ccncc1 (stereo not given),,inactive
CCc1nn(CCCC(=O)N2CCC(C)CC2)c(=O)c2cc3occc3n12,,inconclusive: -7.72%
CCC(=O)N(C)/C=C1\Sc2ccccc2C1=O,"inconclusive: 25.1 µM [falling, partial curve]",
